Laboratory results published in paper PMC3847324, “Jun dimerization protein 2 is a critical component of the Nrf2/MafK complex regulating the response to ROS homeostasis”.

How the values were obtained:
[1] = tested on: Nrf2 (MEF nuclear extract) + MafK (MEF nuclear extract); assay: EMSA supershift; settings: Jdp2 KO MEF nuclear extract; EMSA: 5 ug GST fusion or 10 ng IVT protein, 25 C 30 min; 5% native PAGE in 0.5x TBE at 4 C; binding buffer, salt and pH not given; protein in an extract
[2] = tested on: JDP2 (MEF nuclear extract) + Nrf2 (MEF nuclear extract) + MafK (MEF nuclear extract); assay: EMSA supershift; settings: WT MEF nuclear extract; EMSA: 5 ug GST fusion or 10 ng IVT protein, 25 C 30 min; 5% native PAGE in 0.5x TBE at 4 C; binding buffer, salt and pH not given; protein in an extract

## CAGTCACAGTGACTCAGCAGAATCT (double strand) [human NQO1-ARE WT]
[1]
  binding result: binds
[2]
  binding result: binds

Construct, isoform or probe ends are uncertain for at least one entry. Where cells or extracts were used, other partners may take part.
